The results in this text go back to paper PMC6662706 (Scientific Reports, 2019).

Where a sequence shows no end group, the ends are not given. Strings that start with PEPTIDE1 are HELM notation: dots part the residues, brackets hold end groups and non-standard residues.

A short description of this data set: general procedure: Fmoc solid-phase peptide synthesis; Rink Amide MBHA resin (0.4 mmol/g); HCTU/NMM. Conditions: whole synthesis, analytical C18 RP-HPLC (Vydac), scale of the general procedure 0.1 mmol.

As for “PEPTIDE1{S.Q.E.L.H.R.L.Q.T.Y.P.R.[am]}$$$$V2.0”, the “final HPLC purity” value was 96%. “PEPTIDE1{L.G.R.L.S.Q.E.L.H.R.L.Q.T.Y.[am]}$$$$V2.0”: the “final HPLC purity” value turned out to be 98%. As for LQTYPRTNTGSN, the “final HPLC purity” value amounted to 95%.
